Test results from paper PMC6270209, “Synthesis, Antimycobacterial Activity and In Vitro Cytotoxicity of 5-Chloro-N-phenylpyrazine-2-carboxamides” (Molecules, 2013).
Several values for one entry are separate records, joined by “and”; a condition that tells them apart may be missing. Equal values may be shown once. Read-outs that look alike come from different tables or passages of the source.

Assays:
[1] = test system: Chinese hamster ovary (CHO-K1) cell line
[2] = test system: renal cell adenocarcinoma (ACHN) cell line
[3] = test system: HepG2 cells
[4] = SI = IC50/MIC (M. tbc H37Rv), Table 2

SMILES	CHO-K1 SI [1]	ACHN SI [2]	HepG2 SI [3, 4]	CHO-K1 SI ([1]; SI = IC50/MIC (M. tbc H37Rv))	ACHN SI ([2]; SI = IC50/MIC (M. tbc H37Rv))	HepG2 SI [3]
O=C(Nc1ccc(C(=O)O)c(O)c1)c1cnc(Cl)cn1 [Compound 30, 4-(5-Chloropyrazine-2-carboxamido)-2-hydroxybenzoic acid]	47 and 47.1	35 and 34.8	–	–	–	–
O=C(Nc1ccc(O)cc1)c1cnc(Cl)cn1 [Compound 4, 5-Chloro-N-(4-hydroxyphenyl)pyrazine-2-carboxamide]	–	–	5.5	3.8	8.0	–
O=C(Nc1cc(Cl)ccc1O)c1cnc(Cl)cn1 [Compound 21, 5-Chloro-N-(5-chloro-2-hydroxyphenyl)pyrazine-2-carboxamide]	–	–	7.4	7.1	9.3	–
NC(=O)c1cnc(Cl)cn1 [Compound 5-Cl-PZA, 5-chloropyrazine-2-carboxamide, reference compound]	0.9	–	–	–	–	10.0
